By UniProt entry, the sequences of proteins in these tests, tags left out.
UniProt Q92585: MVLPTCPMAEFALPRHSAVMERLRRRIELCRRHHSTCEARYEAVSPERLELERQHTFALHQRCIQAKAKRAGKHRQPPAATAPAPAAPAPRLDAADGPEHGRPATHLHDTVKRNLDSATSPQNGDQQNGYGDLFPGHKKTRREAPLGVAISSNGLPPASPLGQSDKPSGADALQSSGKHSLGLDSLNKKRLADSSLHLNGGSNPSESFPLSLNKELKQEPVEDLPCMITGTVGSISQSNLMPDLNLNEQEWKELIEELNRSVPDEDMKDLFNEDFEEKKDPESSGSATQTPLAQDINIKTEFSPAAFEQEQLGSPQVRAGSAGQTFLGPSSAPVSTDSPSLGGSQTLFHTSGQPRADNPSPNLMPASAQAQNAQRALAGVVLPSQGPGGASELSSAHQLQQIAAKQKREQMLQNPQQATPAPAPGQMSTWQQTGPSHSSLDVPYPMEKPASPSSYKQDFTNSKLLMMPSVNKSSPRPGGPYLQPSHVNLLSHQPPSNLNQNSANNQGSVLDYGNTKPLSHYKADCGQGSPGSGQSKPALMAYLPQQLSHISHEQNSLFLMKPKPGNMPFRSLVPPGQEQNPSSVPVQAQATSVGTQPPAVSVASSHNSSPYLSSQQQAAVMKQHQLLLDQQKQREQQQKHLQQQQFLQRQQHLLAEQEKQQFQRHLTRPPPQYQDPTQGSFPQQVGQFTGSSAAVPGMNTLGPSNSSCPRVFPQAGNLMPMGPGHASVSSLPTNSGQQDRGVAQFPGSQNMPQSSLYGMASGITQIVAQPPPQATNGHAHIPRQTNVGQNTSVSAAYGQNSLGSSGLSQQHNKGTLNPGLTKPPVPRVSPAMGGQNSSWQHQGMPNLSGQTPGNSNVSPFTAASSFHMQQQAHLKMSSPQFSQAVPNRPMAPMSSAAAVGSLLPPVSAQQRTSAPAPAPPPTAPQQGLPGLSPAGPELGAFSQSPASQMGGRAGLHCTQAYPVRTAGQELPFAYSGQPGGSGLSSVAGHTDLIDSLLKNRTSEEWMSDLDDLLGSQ

According to doi:10.1101/645937:

Molecular target: T1, HA-FLAG-tagged NRARP (human) (UniProt Q7Z6K4)
T1 sequence: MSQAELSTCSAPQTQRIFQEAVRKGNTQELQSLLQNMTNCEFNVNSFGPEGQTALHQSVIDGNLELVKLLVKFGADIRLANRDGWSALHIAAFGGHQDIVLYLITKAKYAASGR
Assay: affinity purification with mass spectrometry

binding: binds
Substance: MAML1 (endogenous, Jurkat) (from UniProt Q92585 1-1016)

No constants are given. Whether binding was seen depends on the method and setting. In cells and extracts the contact can be indirect. Here binding means that the protein was enriched with, or labelled near, the bait; the list need not be complete. Sequences can lack the tags named with a protein.
